Laboratory results as given in the supplement of paper PMC10338343.
± gives the standard deviation. The entries are a selection whose mix differs from that of the whole data set. The uncertainty is large for many entries.

tested on: MIWI (PIWIL1) piRISC loaded with piRNA #2 (30 nt); assay: pre-steady-state target cleavage rate (min^-1); MIWI and MILI are mouse PIWI proteins and EfPiwi is from a freshwater sponge; tags in brackets are library labels; higher = faster piRNA-guided slicing of the target; settings: guide: piRNA #2 5'p-UUAGGUAACCCAGUAGAUCCAGAGGAAUUC; auxiliary factor: 500 nM mouse GTSF1
Procedure, shortened: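 With or without 500 nM GTSF1 partner protein, 1 nM active affinity-purified piRISC carrying one synthetic guide was mixed with 0.1 nM transcribed, DNA-blocked target RNA library in HEPES–potassium acetate buffer at 33 °C for 0–8 or 0–960 min. Uncleaved targets were sequenced and normalised to depth and to weakly complementary targets, three trials were pooled, and k3 was capped at 0.0001 min^-1. The pre-steady-state cleavage rate came from a burst-and-steady-state fit.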

| Sequence | pre-steady-state target cleavage rate |
| --- | --- |
| CUUAAGGAGAGCAUGUACUGGGUUACCUAA | 0.000236 ± 0.018 |
| CUUAAGGACUCGAUCUACUGGGUUACCAAA | 0.00457 ± 0.0065 |
| CUUAAGGAGACCAUCUACUGCGUUACCAAA | 0.00125 ± 0.0045 |
| CUUAAGGAGAGCAUCUUCUGGGUUACCUAA | 0.00182 ± 0.0039 |
| CUUAAGGUCAGGAUCUAGUGGGUUACCUAA | 0.00439 ± 0.0054 |
| CUUAAGGAGACGUCUACUGGGUUACCUAA | 0.000613 ± 0.012 |
| CAAUUCCUCUGGAUCUACGUGGGUUACCUAA | 0.00281 ± 0.0049 |
| CAAUUCCUCUGGAUCUACUGGGUUACCAAA | 0.509 ± 0.068 |
| CUUAAGGAGACCUAGAUCUGGGUUACCAA | 0.000483 ± 0.01 |
| CUUAAGGAGACCUAGAAGUGGCUUACCUAA | 0.000252 ± 0.014 |
| CUUAAGGAGACCUAGAUCUGGGUAAGCUAA | 0.000182 ± 0.042 |
| CUUAAGGAGUGGAUACUACUGGGUUACCUAA | 0.00496 ± 0.0052 |
| CUUAAGGUCUGGAUCUACUCGGUUACCUAA | 0.0416 ± 0.02 |
| CUUAACCUCUGGAUCUACUCGGGUUACCUAA | 0.00194 ± 0.006 |
| CUUAAGGAGACCAUCUACUGGGUAUGCUAA | 0.000306 ± 0.021 |
| CUUAAGGAGACCUACUACUUGGUUACCUAA | 0.000718 ± 0.006 |
| CUUAAGGAGACCUUCUACUGGGUUAUCUAA | 0.00164 ± 0.0085 |
| CUUAAGGAGACGCUCUACUGGGUUACCUAA | 0.00372 ± 0.0038 |
| CUUAAGGAGAGGAUCUUCUGGGUUACCAAA | 0.000238 ± 0.02 |
| CUUAAGGAGACCAUCUAGUGGGUUACCUAA | 0.00148 ± 0.0062 |
| CUUAAGGAGACCUAGAUGAGGGUUCCUAA | 0.00122 ± 0.0085 |
| CUUAAGGAGUCGAUCUACAGGGUUACCUAA | 0.000661 ± 0.015 |
| GAAUUCCUCUGGAUCUACUGGGAAUGGAUA [g9:g30:cont:t1A] | 0.00231 ± 0.0055 |
| CUUAAGGACUCGAUCAACUGGGUUACCUAA | 0.0026 ± 0.0094 |

As entered above:
pre-steady-state target cleavage rate, CUUAAGGAGACCAUCUAGUGGGUUACCUAA reads 0.00148 ± 0.0062
pre-steady-state target cleavage rate, CUUAAGGAGACCUAGAUCUGGGUUACCAA reads 0.000483 ± 0.01
pre-steady-state target cleavage rate, CAAUUCCUCUGGAUCUACUGGGUUACCAAA reads 0.509 ± 0.068
pre-steady-state target cleavage rate, GAAUUCCUCUGGAUCUACUGGGAAUGGAUA [g9:g30:cont:t1A] reads 0.00231 ± 0.0055
pre-steady-state target cleavage rate, CAAUUCCUCUGGAUCUACGUGGGUUACCUAA reads 0.00281 ± 0.0049
pre-steady-state target cleavage rate, CUUAAGGAGACCUAGAAGUGGCUUACCUAA reads 0.000252 ± 0.014

Continuation.

| Sequence | pre-steady-state target cleavage rate |
| --- | --- |
| CUUAACCUCUGGAUCUACUGGGAAUGGAUA [g9:g25:cont:t1A] | 0.000133 ± 0.049 |
| CUUUUCCUCUGGAUCUACUGUGGUUACCUAA | 0.00172 ± 0.0046 |
| CUUAAGGAGACCUUCUACUCGGUAACCUAA | 0.000225 ± 0.047 |
| CUUAAGGUCUGGAUCUACUGGGUUAGGAUA [g6:g23:cont:t1A] | 0.00119 ± 0.019 |
| CUUAAGGAGACCUAAUACUGGGUUACCUAA | 0.00183 ± 0.005 |
| CUUAAGGAGACCUAGUACUGGGUUACCUCA | 0.000957 ± 0.0079 |
| CUUAAGGUCUGGAUCUACUGGGUUAGGAAA | 0.00262 ± 0.0079 |
| CUUAUCCUCUGGAUCUCUGGGUUACCUAA | 0.00296 ± 0.0047 |
| CUUAAGGACUGGAUCGUACUGGGUUACCUAA | 0.000417 ± 0.035 |
| CUUAAGGAGACGUAUCUACUGGGUUACCUAA | 0.00127 ± 0.0057 |
| CUUAAGGUCUGGAUCUACUGGGUUUGCUAA | 0.0859 ± 0.018 |
| CUUAAGGAGUGGAUCUUCUGGGUUACCAAA | 0.00146 ± 0.012 |
| CUAUUCCUCUGGAUCUACUGGCAAACCUAA | 0.00265 ± 0.0034 |
| CUAUUCCUCUGGAUCUACUCCCAAUGGAUA [g12:g28:cont:t1A] | 0.000114 ± 0.043 |
| CUUAUCCUGUGGAUCUACUGGGUUACCUAA | 0.443 ± 0.056 |
| CAAUUCCUCUGGAUCUCCUGGGUUACCUAA | 0.231 ± 0.051 |
| CUUAAGGAGUGGAUCUACUGGCGUUACCUAA | 0.00416 ± 0.0061 |
| CUUAAGGAGUGCAACUACUGGGUUACCUAA | 0.000272 ± 0.043 |
| CAAUUCCUCAGCAUCUACUGGGUUACCUAA | 0.437 ± 0.044 |
| CUUAAGGAGUGGAUGUACUGGGAUACCUAA | 0.00459 ± 0.0056 |
| CUUAAGGAGACCAUCUAGAGGGUUACCUAA | 0.00123 ± 0.0065 |
| CUUAAGGAGACCUUCUACUGAGGUUACCUAA | 0.00175 ± 0.0056 |
| CUUAAGGACUGGAUCUACUGGGUUUCCUUA | 0.00185 ± 0.013 |
| CUUAAGGACUGGAUCUACUGGGAUUACCUAA | 0.00587 ± 0.012 |

| Sequence | pre-steady-state target cleavage rate |
| --- | --- |
| CUUAAGGAGAGGAUCUACUGGCUUACCUUA | 0.000453 ± 0.025 |
| CUUAAGGAGACCUACUACUGGGUUACGUUA | 0.00138 ± 0.0059 |
| CUUAAGGAGACCUAGAAACUGGGUUACCUAA | 0.000942 ± 0.01 |
| CUUAAGGAGACCUCCUACUGGGUUACCUAA | 0.00374 ± 0.0053 |
| CUUAAGGAGACCUAGAUCUGGGGUUACCUAA | 0.000832 ± 0.0097 |
| CUUAAGGAGUGGAUCUACAGGCUUACCUAA | 0.00253 ± 0.01 |
| CUUAAGGACUCGAUGUACUGGGUUACCUAA | 0.00718 ± 0.0079 |
| CUUUUCCUCUGGAUCUACUUGGGUUACCUAA | 0.00187 ± 0.0054 |
| CUUAAGGAGACCAUCUACUGGGUUACGCUAA | 0.00108 ± 0.0054 |
| CUAUUCCUCUCGUUCUACUGGGUUACCUAA | 0.75 ± 0.077 |
| CUUAAGGAGUGGAUCUUCUGGGUUUCCUAA | 0.00101 ± 0.0091 |
| CUUAAGGAGAGGAUCUACUGGGUUACUCUAA | 0.0043 ± 0.0056 |
| CUUAAGCUCUGGAUCUUGAGGGUUACCUAA | 0.00114 ± 0.0087 |
| CUUAAGGAGACCUACUACUCGGUUACCUAA | 0.00059 ± 0.011 |
| CUUAUCCUCUGGAUCUACUGGGUUAGGAUA [g6:g26:cont:t1A] | 0.00315 ± 0.0041 |
| CUUAAGGAGUCGAUCUUCUGGGUUACCUAA | 0.000186 ± 0.033 |
| CUAAUCCUCUCGAUCUACUGGGUUACCUAA | 0.631 ± 0.042 |
| CUUAAGGAGACCUACUACUCGGUUACCAAA | 0.000108 ± 0.052 |
| CUUAAGGAGAGCAUCAACUGGGUUACCUAA | 0.00152 ± 0.0041 |
| GAAUUCCUCUGGAUUACUGGGUUACCUAA | 0.413 ± 0.04 |
| CUUAAGGAGACCUACUGACUGGGUUACCUAA | 0.000321 ± 0.013 |
| CUUAAGGAGAGCAUCUACUGGGUUAGCUAA | 0.00135 ± 0.0047 |
| CUUAAGGAGACGAUCUACUGGGUUACCAAA | 0.00128 ± 0.0064 |
